{"source": "patent US9260474", "about": "(dated 2016)", "experiment": "general procedure: Fmoc solid-phase peptide synthesis; 2-CTC resin or Wang resin (Fmoc-Gly-CTC 0.15-0.28 mmol/g; Fmoc-Gly-Wang 0.12-0.24 mmol/g); PyBOP/HOBt/DIEA (side-chain Palmitoyl-Glu-OtBu coupling)", "settings": "for step yield: purification step, purification yield; for final HPLC purity: 214 nm; for isolated yield: overall", "key": {"[1]": {"settings": "whole synthesis, hydrochloride, acetate or trifluoroacetate"}}}
{"substance": "liraglutide", "values": [{"measurement": "step yield", "setting": "acetate", "result": 54.7, "unit": "%"}, {"measurement": "step yield", "setting": "hydrochloride", "result": 52.7, "unit": "%"}, {"measurement": "step yield", "setting": "trifluoroacetate", "result": 55.2, "unit": "%"}, {"measurement": "final HPLC purity", "setting": "[1]", "result": "greater than 98.5%"}, {"measurement": "final HPLC purity", "setting": "whole synthesis, HPLC, acetate", "result": 99.23, "unit": "%"}, {"measurement": "final HPLC purity", "setting": "whole synthesis, HPLC, hydrochloride", "result": 99.1, "unit": "%"}, {"measurement": "final HPLC purity", "setting": "whole synthesis, HPLC, trifluoroacetate", "result": 99.17, "unit": "%"}, {"measurement": "crude yield", "setting": "[1]", "result": 80.5, "unit": "%"}, {"measurement": "isolated yield", "setting": "whole synthesis, acetate", "result": 15.68, "unit": "%"}, {"measurement": "isolated yield", "setting": "whole synthesis, hydrochloride", "result": 15.32, "unit": "%"}, {"measurement": "isolated yield", "setting": "whole synthesis, trifluoroacetate", "result": 15.87, "unit": "%"}]}
